Record: PubChem BioAssay AID1224830 (NIAID, 2016)
This is one part, drawn at random, of about 18,000 reagents. Of all reagents, about 2,900 (16%) got an active call. 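Calls are made per well; low scores hint the gene aids the LPS response, high scores that it dampens it.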 Entries without a mark were called inactive. Repeated entries: four replicate wells of each siRNA pool.

Purpose: 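Genes whose knock-down alters the TNF-alpha reporter response to LPS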 (primary screen)
Cell system: human THP-1 monocytic leukaemia cells, TNF dual-luciferase reporter clone, PMA-differentiated to macrophage-like cells
Reagents: siRNA pool against human genes, 50 nM
Timing: LPS for 4 h, given about 3 days after siRNA transfection
Challenge: bacterial LPS (TLR4 ligand), 10 ng/ml
Measured: 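Ratio of firefly to renilla light, scaled to the plate median and expressed as a robust z-score per replicate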
Direction: TNF reporter robust z-score: higher = stronger TNF reporter response to LPS
Active means: 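Each well counts as active if its z-score is over 2.8 or under -1.5; controls are left without a call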

no.	Target gene	TNF reporter robust z-score
1	CGNL1 (cingulin like 1)	-0.36
2	CGNL1 (cingulin like 1)	-0.01
3	CGNL1 (cingulin like 1)	-1
4	CGNL1 (cingulin like 1)	-0.57
5	PCDH15 (protocadherin related 15)	-1.06
6	PCDH15 (protocadherin related 15)	-0.75
7	PCDH15 (protocadherin related 15)	-0.38
8	PCDH15 (protocadherin related 15)	-0.16
9	SLCO1B7	-1.54 (active)
10	SLCO1B7	-0.83
11	SLCO1B7	-1.47
12	SLCO1B7	-0.63
13	POLR3A (RNA polymerase III subunit A)	-1.05
14	POLR3A (RNA polymerase III subunit A)	-0.4
15	POLR3A (RNA polymerase III subunit A)	1.01
16	POLR3A (RNA polymerase III subunit A)	1.53
17	FOXO1 (forkhead box O1)	0.64
18	FOXO1 (forkhead box O1)	0.98
19	FOXO1 (forkhead box O1)	-0.13
20	FOXO1 (forkhead box O1)	1.18
21	CYP2W1 (cytochrome P450 family 2 subfamily W member 1)	-1.05
22	CYP2W1 (cytochrome P450 family 2 subfamily W member 1)	-1.39
23	CYP2W1 (cytochrome P450 family 2 subfamily W member 1)	-0.51
24	CYP2W1 (cytochrome P450 family 2 subfamily W member 1)	-0.89
25	FBXO11 (F-box protein 11)	-1.31
26	FBXO11 (F-box protein 11)	3.37 (active)
27	FBXO11 (F-box protein 11)	-0.77
28	FBXO11 (F-box protein 11)	2.23
29	MYOC (myocilin)	-0.83
30	MYOC (myocilin)	-0.47
31	MYOC (myocilin)	-0.55
32	MYOC (myocilin)	0.51
33	HS3ST1 (heparan sulfate-glucosamine 3-sulfotransferase 1)	-0.62
34	HS3ST1 (heparan sulfate-glucosamine 3-sulfotransferase 1)	0.61
35	HS3ST1 (heparan sulfate-glucosamine 3-sulfotransferase 1)	-0.7
36	HS3ST1 (heparan sulfate-glucosamine 3-sulfotransferase 1)	-0.35
37	CCT8L2 (chaperonin containing TCP1 subunit 8 like 2)	-0.61
38	CCT8L2 (chaperonin containing TCP1 subunit 8 like 2)	-0.5
39	CCT8L2 (chaperonin containing TCP1 subunit 8 like 2)	-0.12
40	CCT8L2 (chaperonin containing TCP1 subunit 8 like 2)	-0.28
41	POLR1G (RNA polymerase I subunit G)	0.39
42	POLR1G (RNA polymerase I subunit G)	1.11
43	POLR1G (RNA polymerase I subunit G)	1.35
44	POLR1G (RNA polymerase I subunit G)	2.59
45	GBP6 (guanylate binding protein family member 6)	-0.17
46	GBP6 (guanylate binding protein family member 6)	-0.83
47	GBP6 (guanylate binding protein family member 6)	-0.28
48	GBP6 (guanylate binding protein family member 6)	-0.98
49	OR8D1 (olfactory receptor family 8 subfamily D member 1)	-0.35
50	OR8D1 (olfactory receptor family 8 subfamily D member 1)	0.08
51	OR8D1 (olfactory receptor family 8 subfamily D member 1)	1.72
52	OR8D1 (olfactory receptor family 8 subfamily D member 1)	1.37
53	ZNF609 (zinc finger protein 609)	-0.84
54	ZNF609 (zinc finger protein 609)	-0.98
55	ZNF609 (zinc finger protein 609)	-0.73
56	ZNF609 (zinc finger protein 609)	-1.17
57	SLC26A5	-0.32
58	SLC26A5	-0.1
59	SLC26A5	0.13
60	SLC26A5	-0.11
61	DEFB131A (defensin beta 131A)	1.4
62	DEFB131A (defensin beta 131A)	0.66
63	DEFB131A (defensin beta 131A)	0.96
64	DEFB131A (defensin beta 131A)	-0.2

Entries listed so far whose target name begins with D or d:
Target gene	TNF reporter robust z-score
DEFB131A (defensin beta 131A)	1.4
DEFB131A (defensin beta 131A)	0.66
DEFB131A (defensin beta 131A)	0.96
DEFB131A (defensin beta 131A)	-0.2

Further entries:
no.	Target gene	TNF reporter robust z-score
65	DLX6 (distal-less homeobox 6)	-0.1
66	DLX6 (distal-less homeobox 6)	-0.4
67	DLX6 (distal-less homeobox 6)	1.16
68	DLX6 (distal-less homeobox 6)	-0.09
69	CBX3 (chromobox 3)	0.26
70	CBX3 (chromobox 3)	0.7
71	CBX3 (chromobox 3)	-0.26
72	CBX3 (chromobox 3)	0.17
73	NFYB (nuclear transcription factor Y subunit beta)	-1.94 (active)
74	NFYB (nuclear transcription factor Y subunit beta)	-1.08
75	NFYB (nuclear transcription factor Y subunit beta)	-1.54 (active)
76	NFYB (nuclear transcription factor Y subunit beta)	-0.4
77	IGFBP7 (insulin like growth factor binding protein 7)	-1.24
78	IGFBP7 (insulin like growth factor binding protein 7)	-0.11
79	IGFBP7 (insulin like growth factor binding protein 7)	-1.16
80	IGFBP7 (insulin like growth factor binding protein 7)	-0.92
81	BMF (Bcl2 modifying factor)	-0.18
82	BMF (Bcl2 modifying factor)	-0.64
83	BMF (Bcl2 modifying factor)	4.51 (active)
84	BMF (Bcl2 modifying factor)	3.39 (active)
85	LRRC25 (leucine rich repeat containing 25)	1.14
86	LRRC25 (leucine rich repeat containing 25)	0.64
87	LRRC25 (leucine rich repeat containing 25)	-0.42
88	LRRC25 (leucine rich repeat containing 25)	-0.63
89	SDHD (succinate dehydrogenase complex subunit D)	-1.61 (active)
90	SDHD (succinate dehydrogenase complex subunit D)	-1.51 (active)
91	SDHD (succinate dehydrogenase complex subunit D)	-1.88 (active)
92	SDHD (succinate dehydrogenase complex subunit D)	-1.2
93	CDHR5 (cadherin related family member 5)	0.59
94	CDHR5 (cadherin related family member 5)	-0.36
95	CDHR5 (cadherin related family member 5)	-0.44
96	CDHR5 (cadherin related family member 5)	0.01
97	FIBCD1 (fibrinogen C domain containing 1)	-1.76 (active)
98	FIBCD1 (fibrinogen C domain containing 1)	-1.29
99	FIBCD1 (fibrinogen C domain containing 1)	-1.66 (active)
100	FIBCD1 (fibrinogen C domain containing 1)	-0.97
101	SUMF2 (sulfatase modifying factor 2)	2.37
102	SUMF2 (sulfatase modifying factor 2)	4.23 (active)
103	SUMF2 (sulfatase modifying factor 2)	1
104	SUMF2 (sulfatase modifying factor 2)	2.18
105	PDZK1IP1 (PDZK1 interacting protein 1)	0.06
106	PDZK1IP1 (PDZK1 interacting protein 1)	-0.37
107	PDZK1IP1 (PDZK1 interacting protein 1)	-0.17
108	PDZK1IP1 (PDZK1 interacting protein 1)	-0.93
109	PLCB1 (phospholipase C beta 1)	0.74
110	PLCB1 (phospholipase C beta 1)	-0.57
111	PLCB1 (phospholipase C beta 1)	1.01
112	PLCB1 (phospholipase C beta 1)	-0.04
